Results as given in publication PMC7519068.
These are yes or no findings as the source states them, for the method shown. Binding seen in cells or lysates may run through a third protein. A yes stands for co-enrichment or nearness to the bait. Other partners may have been found. For some assays here: Sequences can lack the tags named with a protein.

T1: Put7-V5 (Ylr283w with a C-terminal V5 tag) (S. cerevisiae) (UniProt Q05867)
T1 sequence: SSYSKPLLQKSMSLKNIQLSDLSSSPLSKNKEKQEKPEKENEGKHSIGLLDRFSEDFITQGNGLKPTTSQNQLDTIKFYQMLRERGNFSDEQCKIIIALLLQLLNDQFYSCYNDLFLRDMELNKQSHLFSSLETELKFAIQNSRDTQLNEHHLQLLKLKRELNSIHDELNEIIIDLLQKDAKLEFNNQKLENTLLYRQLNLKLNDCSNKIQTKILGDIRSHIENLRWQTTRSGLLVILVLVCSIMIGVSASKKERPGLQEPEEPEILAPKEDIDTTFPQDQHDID

B1: Put7 (Ylr283w), endogenous (protein, UniProt Q05867 30-314)
chain: SSYSKPLLQKSMSLKNIQLSDLSSSPLSKNKEKQEKPEKENEGKHSIGLLDRFSEDFITQGNGLKPTTSQNQLDTIKFYQMLRERGNFSDEQCKIIIALLLQLLNDQFYSCYNDLFLRDMELNKQSHLFSSLETELKFAIQNSRDTQLNEHHLQLLKLKRELNSIHDELNEIIIDLLQKDAKLEFNNQKLENTLLYRQLNLKLNDCSNKIQTKILGDIRSHIENLRWQTTRSGLLVILVLVCSIMIGVSASKKERPGLQEPEEPEILAPKEDIDTTFPQDQHDID

Key:
[1] = target: T1, Put7-V5 (Ylr283w with a C-terminal V5 tag) (S. cerevisiae); test: affinity purification with mass spectrometry; 3 mg crude mitochondria from put6Δ/put7Δ cells with empty vector or Put6-V5/Put7-V5, solubilized in IP buffer (20 mM HEPES-KOH pH 7.4, 1 mM CaCl2, 100 mM NaCl, 1% digitonin, 10% glycerol); anti-V5 antibody cross-linked to Dynabeads Protein G; quantitative MS, normalized to empty vector
[2] = target: Put6-V5 (Fmp32 with a C-terminal V5 tag) (S. cerevisiae); test: as above

Row | Molecule | binding [1] | binding [2]
1 | Put6 (Fmp32), endogenous | binds | 
2 | B1 |  | binds
